# At least one peptide structure holds a part that was inferred or is arguable (an end, a ring closure or a residue). Ends that are not written are not given here.
# What was measured:
# Sf9 cells = assay: rBV titers from bacmid-transfected Sf9 cells; type: cell-based, Spodoptera frugiperda; conditions: FIG. 18
# Procedure: The titer of the rBV can be determined using a foci/viral plaque assay. This assay first includes the step of infecting cells with serial dilutions of a solution containing rBV. After infection occurs for a predetermined time, the rBV is removed from the cultures and the cells are incubated for a pre-determined time. After the pre-determined time has elapsed, a plaquing media (e.g., containing agarose) is added to the cultures and allowed to harden. The cells are allowed to further incubate for a pre-determined time and the number of plaques are counted after the pre-determined time. The titer is calculated using the following formula: Titer (plaque forming units/mL)=number of plaques×dilution factor×(1/(mL of inoculum/well)
# AAV5 capsids were also produced in Sf9 cells. To produce the AAV5 capsids, Sf9 cells were transfected with bacmids having nucleotide sequences for generating AAV5 capsids or providing an AAV genome vector using the control transfection reagent and different HRPs. […] In culture, the rBVs generated from the initial bacmid transfection subsequently infect other Sf9 cells that in turn generated more rBVs.
# HEK293 cells [1] = assay: Transfection efficiency (cells expressing GFP, flow cytometry), plasmids for producing Bba41 capsids; type: cell-based, human; conditions: shake flasks (30 mL), 24 hours
# HEK293 cells [2] = assay: Transfection efficiency (cells expressing GFP, flow cytometry), plasmids for producing AAV9 capsids; type: cell-based, human
sequence,measurement,setting,value
KKALLALALHHLAHLALHLALALKKA [LAH4],rBV titers versus control reagent,Sf9 cells,comparable
same,transfection efficiency,"HEK293 cells [1]; 5-13 μg/ml LAH4, 0%, 1%, 10% complexation volumes, FIG. 2",high efficiencies
same,GFP fluorescence intensity,"HEK293 cells [1]; different LAH4 concentrations and complexation volumes, FIG. 3",high GFP fluorescence
same,average transfection efficiency,"HEK293 cells [2]; Ambr15, 1% complexation volume, 24 hours, FIG. 10B",> 67.5%
same,average transfection efficiency,"HEK293 cells [2]; Ambr15, 1% complexation volume, 48 hours, FIG. 10A",greater than 87.5%
same,average transfection efficiency,"HEK293 cells [2]; Ambr15, 10% complexation volume, 24 hours, FIG. 10B",greater than 70%
same,average transfection efficiency,"HEK293 cells [2]; Ambr15, 10% complexation volume, 48 hours, FIG. 10A",> 95%
same,average transfection efficiency,"HEK293 cells [2]; Ambr15, 10 and 60 minute complexation times, 48 hours, FIG. 10E",~90%
same,average transfection efficiency,"HEK293 cells [2]; Ambr15, 10 minute complexation time, 24 hours, FIG. 10F",~70%
same,average transfection efficiency,"HEK293 cells [2]; Ambr15, 60 minute complexation time, 24 hours, FIG. 10F",~67.5%

# From patent US20240132910A1, “USE OF HISTIDINE RICH PEPTIDES AS A TRANSFECTION REAGENT FOR rAAV AND rBV PRODUCTION” (BioMarin Pharmaceutical Inc., priority 2021, published 2024)
